{
  "sequences": {"note": "By UniProt entry, the sequences of proteins in these tests, tags left out. Where a name states a change or a piece, a line headed by the entry shows the natural chain unless it says otherwise. Residues count along the entry.", "UniProt Q9H0W8": "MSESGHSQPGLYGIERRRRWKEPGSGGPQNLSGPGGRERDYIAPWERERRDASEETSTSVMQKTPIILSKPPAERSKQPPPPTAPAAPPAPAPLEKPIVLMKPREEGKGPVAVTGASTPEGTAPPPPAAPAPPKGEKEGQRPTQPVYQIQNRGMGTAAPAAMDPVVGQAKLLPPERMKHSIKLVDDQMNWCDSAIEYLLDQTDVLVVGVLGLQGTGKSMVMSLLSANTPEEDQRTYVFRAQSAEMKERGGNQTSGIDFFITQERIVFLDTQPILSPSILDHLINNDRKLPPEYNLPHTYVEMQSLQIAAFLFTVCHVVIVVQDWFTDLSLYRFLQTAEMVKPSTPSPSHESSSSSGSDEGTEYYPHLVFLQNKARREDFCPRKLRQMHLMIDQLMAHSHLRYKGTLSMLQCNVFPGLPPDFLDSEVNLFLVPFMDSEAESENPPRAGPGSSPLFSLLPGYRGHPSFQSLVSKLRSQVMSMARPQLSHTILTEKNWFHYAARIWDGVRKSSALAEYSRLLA", "UniProt P43003, whole entry, looked up": "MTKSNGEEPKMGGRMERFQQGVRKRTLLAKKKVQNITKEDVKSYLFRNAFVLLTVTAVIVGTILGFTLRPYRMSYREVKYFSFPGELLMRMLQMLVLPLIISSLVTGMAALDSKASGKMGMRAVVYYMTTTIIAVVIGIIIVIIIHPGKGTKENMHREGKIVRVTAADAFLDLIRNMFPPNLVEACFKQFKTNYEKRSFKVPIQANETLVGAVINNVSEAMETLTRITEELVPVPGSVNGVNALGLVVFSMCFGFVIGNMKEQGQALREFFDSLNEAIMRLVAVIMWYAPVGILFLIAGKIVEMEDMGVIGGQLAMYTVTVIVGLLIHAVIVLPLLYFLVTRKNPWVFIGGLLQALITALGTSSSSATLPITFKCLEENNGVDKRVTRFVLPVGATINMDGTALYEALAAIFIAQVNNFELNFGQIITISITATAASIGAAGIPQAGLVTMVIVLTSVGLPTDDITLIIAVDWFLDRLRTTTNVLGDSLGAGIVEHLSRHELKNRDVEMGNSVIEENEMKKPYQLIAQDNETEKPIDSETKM", "UniProt Q53HV7": "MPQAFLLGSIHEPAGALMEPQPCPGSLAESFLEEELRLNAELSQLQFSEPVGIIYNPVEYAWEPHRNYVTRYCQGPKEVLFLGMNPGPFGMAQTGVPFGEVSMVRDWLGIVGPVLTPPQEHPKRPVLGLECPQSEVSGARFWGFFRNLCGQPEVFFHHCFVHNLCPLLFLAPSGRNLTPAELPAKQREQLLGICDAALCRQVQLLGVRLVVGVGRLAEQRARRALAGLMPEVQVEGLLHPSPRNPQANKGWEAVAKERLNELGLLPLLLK", "UniProt Q8IX90, 276-295": "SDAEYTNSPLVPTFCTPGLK", "UniProt Q92925, whole entry, looked up": "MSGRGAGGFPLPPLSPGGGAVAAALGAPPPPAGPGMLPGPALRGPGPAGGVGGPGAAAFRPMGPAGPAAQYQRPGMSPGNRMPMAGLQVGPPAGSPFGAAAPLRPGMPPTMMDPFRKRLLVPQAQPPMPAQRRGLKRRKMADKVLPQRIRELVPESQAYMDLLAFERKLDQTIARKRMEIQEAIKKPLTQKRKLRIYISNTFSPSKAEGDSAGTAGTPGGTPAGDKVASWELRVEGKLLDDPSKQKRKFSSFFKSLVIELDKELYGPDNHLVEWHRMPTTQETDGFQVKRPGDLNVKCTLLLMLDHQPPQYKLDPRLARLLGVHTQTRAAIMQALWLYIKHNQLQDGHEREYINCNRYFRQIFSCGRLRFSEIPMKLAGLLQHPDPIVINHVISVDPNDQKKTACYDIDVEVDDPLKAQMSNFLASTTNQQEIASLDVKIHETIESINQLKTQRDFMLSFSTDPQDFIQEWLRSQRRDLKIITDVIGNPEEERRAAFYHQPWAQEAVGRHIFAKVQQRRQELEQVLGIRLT", "UniProt Q9H4L7": "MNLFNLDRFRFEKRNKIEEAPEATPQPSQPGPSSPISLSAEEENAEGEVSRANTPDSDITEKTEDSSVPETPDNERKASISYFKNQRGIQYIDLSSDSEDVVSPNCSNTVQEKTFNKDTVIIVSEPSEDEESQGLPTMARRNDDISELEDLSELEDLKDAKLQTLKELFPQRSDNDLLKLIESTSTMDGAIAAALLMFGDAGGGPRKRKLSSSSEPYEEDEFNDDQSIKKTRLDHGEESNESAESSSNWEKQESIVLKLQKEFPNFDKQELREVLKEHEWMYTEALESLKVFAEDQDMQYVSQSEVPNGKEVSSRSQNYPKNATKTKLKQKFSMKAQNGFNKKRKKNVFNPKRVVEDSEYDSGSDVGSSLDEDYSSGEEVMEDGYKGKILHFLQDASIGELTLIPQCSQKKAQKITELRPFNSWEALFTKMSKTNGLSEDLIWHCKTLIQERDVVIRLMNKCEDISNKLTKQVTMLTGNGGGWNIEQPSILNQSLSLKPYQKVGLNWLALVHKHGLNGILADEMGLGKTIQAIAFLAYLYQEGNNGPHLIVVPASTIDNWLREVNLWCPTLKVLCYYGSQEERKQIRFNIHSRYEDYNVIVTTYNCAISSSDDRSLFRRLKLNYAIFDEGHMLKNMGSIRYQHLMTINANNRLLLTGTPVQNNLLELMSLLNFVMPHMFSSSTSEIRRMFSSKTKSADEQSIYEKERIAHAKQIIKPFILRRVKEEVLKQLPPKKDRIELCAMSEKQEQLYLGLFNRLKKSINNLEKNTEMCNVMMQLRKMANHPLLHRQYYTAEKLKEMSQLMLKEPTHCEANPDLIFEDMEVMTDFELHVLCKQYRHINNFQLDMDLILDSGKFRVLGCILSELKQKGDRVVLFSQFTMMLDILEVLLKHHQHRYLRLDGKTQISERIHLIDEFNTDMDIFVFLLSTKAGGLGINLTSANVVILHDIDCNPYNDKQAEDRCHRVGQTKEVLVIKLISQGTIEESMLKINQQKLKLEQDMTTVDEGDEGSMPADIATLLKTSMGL", "UniProt O00161": "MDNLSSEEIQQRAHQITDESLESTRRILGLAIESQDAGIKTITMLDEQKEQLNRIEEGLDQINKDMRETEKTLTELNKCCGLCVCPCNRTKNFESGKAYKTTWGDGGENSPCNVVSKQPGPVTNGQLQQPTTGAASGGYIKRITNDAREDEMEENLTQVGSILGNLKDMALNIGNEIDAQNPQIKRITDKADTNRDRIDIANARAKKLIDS", "UniProt Q15796, whole entry, looked up": "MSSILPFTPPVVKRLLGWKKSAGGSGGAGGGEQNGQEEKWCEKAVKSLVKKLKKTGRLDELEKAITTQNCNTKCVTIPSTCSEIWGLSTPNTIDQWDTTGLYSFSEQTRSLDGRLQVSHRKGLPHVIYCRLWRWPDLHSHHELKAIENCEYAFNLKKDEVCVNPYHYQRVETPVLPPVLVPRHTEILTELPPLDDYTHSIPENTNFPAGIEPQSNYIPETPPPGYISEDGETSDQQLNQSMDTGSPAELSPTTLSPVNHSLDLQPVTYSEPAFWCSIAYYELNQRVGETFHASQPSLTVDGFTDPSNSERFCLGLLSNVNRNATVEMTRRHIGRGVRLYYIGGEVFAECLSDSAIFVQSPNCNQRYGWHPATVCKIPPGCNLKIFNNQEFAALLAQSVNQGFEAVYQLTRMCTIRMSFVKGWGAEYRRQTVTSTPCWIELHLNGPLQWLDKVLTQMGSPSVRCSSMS", "UniProt Q15477": "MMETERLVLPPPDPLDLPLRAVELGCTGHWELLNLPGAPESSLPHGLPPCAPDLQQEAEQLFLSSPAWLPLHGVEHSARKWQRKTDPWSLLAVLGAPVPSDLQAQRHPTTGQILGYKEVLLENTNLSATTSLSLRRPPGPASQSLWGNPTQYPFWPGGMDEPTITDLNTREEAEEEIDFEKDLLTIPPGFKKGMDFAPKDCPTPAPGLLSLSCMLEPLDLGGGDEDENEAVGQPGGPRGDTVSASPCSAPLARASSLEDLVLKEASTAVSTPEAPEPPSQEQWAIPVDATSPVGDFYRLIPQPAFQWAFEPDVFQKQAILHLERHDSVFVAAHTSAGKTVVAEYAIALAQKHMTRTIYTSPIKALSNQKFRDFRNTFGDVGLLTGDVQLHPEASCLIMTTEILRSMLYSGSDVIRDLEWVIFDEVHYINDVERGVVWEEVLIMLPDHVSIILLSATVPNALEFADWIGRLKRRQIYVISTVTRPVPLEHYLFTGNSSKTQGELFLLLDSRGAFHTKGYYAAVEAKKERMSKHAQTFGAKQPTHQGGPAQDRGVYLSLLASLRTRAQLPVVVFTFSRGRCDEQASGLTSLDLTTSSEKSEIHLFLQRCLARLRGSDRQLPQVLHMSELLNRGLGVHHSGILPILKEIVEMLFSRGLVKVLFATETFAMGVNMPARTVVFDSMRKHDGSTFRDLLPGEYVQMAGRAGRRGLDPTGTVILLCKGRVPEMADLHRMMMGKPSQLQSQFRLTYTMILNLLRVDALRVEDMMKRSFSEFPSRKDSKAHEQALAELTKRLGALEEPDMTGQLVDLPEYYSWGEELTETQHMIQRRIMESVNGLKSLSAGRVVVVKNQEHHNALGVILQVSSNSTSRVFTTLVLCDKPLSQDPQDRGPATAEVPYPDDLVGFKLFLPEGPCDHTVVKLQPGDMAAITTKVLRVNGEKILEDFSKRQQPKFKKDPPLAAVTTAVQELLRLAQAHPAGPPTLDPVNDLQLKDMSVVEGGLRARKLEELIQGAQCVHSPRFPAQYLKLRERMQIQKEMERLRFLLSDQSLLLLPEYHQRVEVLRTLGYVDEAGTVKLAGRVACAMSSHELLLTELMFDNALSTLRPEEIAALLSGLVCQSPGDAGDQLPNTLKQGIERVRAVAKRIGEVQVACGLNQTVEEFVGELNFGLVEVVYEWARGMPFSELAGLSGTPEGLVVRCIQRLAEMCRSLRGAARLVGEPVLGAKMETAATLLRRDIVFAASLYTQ", "UniProt P50443": "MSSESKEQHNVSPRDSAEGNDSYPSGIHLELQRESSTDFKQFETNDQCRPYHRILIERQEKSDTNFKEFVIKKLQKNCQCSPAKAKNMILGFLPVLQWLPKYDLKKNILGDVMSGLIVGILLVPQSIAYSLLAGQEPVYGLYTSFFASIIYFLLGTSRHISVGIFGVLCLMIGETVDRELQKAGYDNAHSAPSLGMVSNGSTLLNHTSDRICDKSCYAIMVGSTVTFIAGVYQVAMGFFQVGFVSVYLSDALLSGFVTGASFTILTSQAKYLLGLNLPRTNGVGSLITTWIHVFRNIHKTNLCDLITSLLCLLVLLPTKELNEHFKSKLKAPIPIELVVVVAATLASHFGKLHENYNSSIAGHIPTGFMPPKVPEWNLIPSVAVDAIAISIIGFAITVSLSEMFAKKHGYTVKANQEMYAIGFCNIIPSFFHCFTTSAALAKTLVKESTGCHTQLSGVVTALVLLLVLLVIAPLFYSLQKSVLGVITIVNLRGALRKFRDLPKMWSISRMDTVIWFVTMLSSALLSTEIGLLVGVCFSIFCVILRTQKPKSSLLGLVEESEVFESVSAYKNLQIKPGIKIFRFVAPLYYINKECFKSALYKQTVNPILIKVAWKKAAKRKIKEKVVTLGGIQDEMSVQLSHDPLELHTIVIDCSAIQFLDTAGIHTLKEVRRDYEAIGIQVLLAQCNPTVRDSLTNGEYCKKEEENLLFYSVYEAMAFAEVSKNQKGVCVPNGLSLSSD", "UniProt Q9UPR3": "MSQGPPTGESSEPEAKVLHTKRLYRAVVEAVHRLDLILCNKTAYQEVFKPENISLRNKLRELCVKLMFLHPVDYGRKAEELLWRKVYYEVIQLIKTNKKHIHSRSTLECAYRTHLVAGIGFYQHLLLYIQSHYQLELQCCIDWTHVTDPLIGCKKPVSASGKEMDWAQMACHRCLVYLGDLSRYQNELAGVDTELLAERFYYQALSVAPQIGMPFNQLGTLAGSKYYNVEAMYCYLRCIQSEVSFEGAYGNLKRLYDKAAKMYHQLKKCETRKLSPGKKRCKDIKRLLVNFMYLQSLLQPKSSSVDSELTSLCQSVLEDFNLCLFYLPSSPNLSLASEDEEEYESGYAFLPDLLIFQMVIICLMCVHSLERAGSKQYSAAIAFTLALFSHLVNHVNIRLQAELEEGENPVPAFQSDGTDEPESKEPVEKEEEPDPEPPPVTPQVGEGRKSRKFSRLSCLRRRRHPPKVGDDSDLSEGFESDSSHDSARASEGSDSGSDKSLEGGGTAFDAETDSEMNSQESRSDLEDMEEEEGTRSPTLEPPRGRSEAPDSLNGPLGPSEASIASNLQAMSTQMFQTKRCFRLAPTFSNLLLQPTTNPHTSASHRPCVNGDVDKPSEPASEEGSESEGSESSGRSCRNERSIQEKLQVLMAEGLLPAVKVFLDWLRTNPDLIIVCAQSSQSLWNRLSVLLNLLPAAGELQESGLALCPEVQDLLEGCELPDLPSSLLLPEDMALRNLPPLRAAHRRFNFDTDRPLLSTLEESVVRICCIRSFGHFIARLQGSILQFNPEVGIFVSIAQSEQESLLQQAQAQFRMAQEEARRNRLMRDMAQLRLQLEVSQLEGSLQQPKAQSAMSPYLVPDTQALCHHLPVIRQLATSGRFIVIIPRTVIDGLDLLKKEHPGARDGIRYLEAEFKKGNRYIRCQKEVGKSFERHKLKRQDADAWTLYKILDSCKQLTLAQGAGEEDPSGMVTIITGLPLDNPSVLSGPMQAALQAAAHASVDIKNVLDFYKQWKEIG"},
  "source": "the supplement of paper PMC11732987",
  "about": "“Enantioselective OTUD7B fragment discovery through chemoproteomics screening and high-throughput optimisation” (Communications Chemistry, 2025)",
  "note": "The list shows a part of the results. The data scatter; read single values as rough.",
  "data": [
    {"compound": "ClCC(=O)N[C@@H]1CCCc2ccccc12", "assay": "log2 mean competition ratio of IA-DTB cysteine labelling (DMSO/compound) (log2 ratio); higher = stronger cysteine engagement by compound", "conditions": "200 µM; treatment time: 4 h; cell line lysate: HEK293T", "experimental": "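IA-DTB competitive cysteine chemoproteomics in HEK293T RIPA lysate. Lysates were treated with compound 29 or 30 at 50 or 200 µM for 4 h, then IA-DTB (500 µM, 1 h), trypsin-digested, NeutrAvidin-enriched and analysed by diaPASEF. Competition ratio = intensity DMSO / intensity compound (n=4 treated, n=64 DMSO); binding: mean log2 CR ≥ 1 and p ≤ 0.05 plus QC filters. Target is the cysteine site.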", "values": [
      {"target": "SMG9 C380 (UniProt Q9H0W8)", "log2 mean competition ratio": 0.336},
      {"target": "SLC1A3 C375 (UniProt P43003)", "log2 mean competition ratio": 0.204},
      {"target": "SMUG1 C131 (UniProt Q53HV7)", "log2 mean competition ratio": 0.173},
      {"target": "SKA3 C290 (UniProt Q8IX90)", "log2 mean competition ratio": 0.137},
      {"target": "SMARCD2 C355 (UniProt Q92925)", "log2 mean competition ratio": -0.0653},
      {"target": "SMARCAD1 C575 (UniProt Q9H4L7)", "log2 mean competition ratio": -0.122},
      {"target": "SOS1 C167 (UniProt Q07889)", "log2 mean competition ratio": 0.127},
      {"target": "SMARCA2 C91 (UniProt P51531)", "log2 mean competition ratio": 0.419},
      {"target": "SMARCAD1 C741 (UniProt Q9H4L7)", "log2 mean competition ratio": 0.0236},
      {"target": "SMYD4 C380 (UniProt Q8IYR2)", "log2 mean competition ratio": 0.125},
      {"target": "SLC2A4RG C322", "log2 mean competition ratio": 0.164},
      {"target": "SLC1A1 C343", "log2 mean competition ratio": 0.0287},
      {"target": "SMG8 C861 (UniProt Q8ND04)", "log2 mean competition ratio": 0.133},
      {"target": "SNAP23 C112 (UniProt O00161)", "log2 mean competition ratio": 0.149},
      {"target": "SKA3 C215 (UniProt Q8IX90)", "log2 mean competition ratio": -0.185},
      {"target": "SMAD2 C380 (UniProt Q15796)", "log2 mean competition ratio": -0.0192},
      {"target": "SLC6A11 C80", "log2 mean competition ratio": -0.261},
      {"target": "SNRNP200 C428 (UniProt O75643)", "log2 mean competition ratio": -0.131},
      {"target": "SKA1 C29 (UniProt Q96BD8)", "log2 mean competition ratio": -0.145},
      {"target": "SKIL C268 (UniProt P12757)", "log2 mean competition ratio": 0.444},
      {"target": "SPART C405 (UniProt Q8N0X7)", "log2 mean competition ratio": -0.228},
      {"target": "SMC5 C726 (UniProt Q8IY18)", "log2 mean competition ratio": -0.0566},
      {"target": "SKIV2L C913 (UniProt Q15477)", "log2 mean competition ratio": 0.0401},
      {"target": "SLC26A2 C48 (UniProt P50443)", "log2 mean competition ratio": 0.0566},
      {"target": "SMG5 C39 (UniProt Q9UPR3)", "log2 mean competition ratio": -0.0514},
      {"target": "SMG8 C555 (UniProt Q8ND04)", "log2 mean competition ratio": -0.0829},
      {"target": "SMAD9 C61 (UniProt O15198)", "log2 mean competition ratio": 0.1}
    ]}
  ]
}
